For assay [1], the target named is T1, Bovine PureCol collagen type I (bovine) (UniProt P02453+P02465). The assay can be described thus: cell adhesion assay; cells seeded for 40 min at 37 °C on a thin layer of fibrillar collagen (1.24 mg/mL final) in 24-well plates blocked with 2% BSA; crystal violet, absorbance at 595 nm; only the target purified.
The target of assay [2] is T1, Bovine PureCol collagen type I (bovine). The assay can be described thus: cell adhesion assay; cells seeded for 40 min at 37 °C on monomeric collagens coated at 10 µg/mL in PBS, plates blocked with 2% BSA; crystal violet, absorbance at 595 nm; only the target purified.
Assay [3] has the same target. The assay can be described thus: ELISA; solid phase assay as for the native collagens, but collagens heat-denatured (50 °C for 30 min) before immobilisation; integrin α2β1 at 20 nM, 2 mM MgCl2; both purified.
Assay [4] has the same target. The assay can be described thus: ELISA; solid phase assay: collagens (50 µg/mL) or fibronectin (10 µg/mL) immobilised on a 96-well plate; integrin α2β1 in 1% BSA in PBS-T with 2 mM MgCl2, 3 h at room temperature; detected by mouse anti-human integrin α2β1 and anti-mouse HRP; Kd by Scatchard plot; both purified. On the technique in general: In an ELISA, binding on a coated surface is turned into a signal by an enzyme label.

Chains of the proteins cited; added tags and fusions are not shown. Lines headed by an entry give the natural chain unless they say otherwise; changes in a name come on top.
UniProt P02453: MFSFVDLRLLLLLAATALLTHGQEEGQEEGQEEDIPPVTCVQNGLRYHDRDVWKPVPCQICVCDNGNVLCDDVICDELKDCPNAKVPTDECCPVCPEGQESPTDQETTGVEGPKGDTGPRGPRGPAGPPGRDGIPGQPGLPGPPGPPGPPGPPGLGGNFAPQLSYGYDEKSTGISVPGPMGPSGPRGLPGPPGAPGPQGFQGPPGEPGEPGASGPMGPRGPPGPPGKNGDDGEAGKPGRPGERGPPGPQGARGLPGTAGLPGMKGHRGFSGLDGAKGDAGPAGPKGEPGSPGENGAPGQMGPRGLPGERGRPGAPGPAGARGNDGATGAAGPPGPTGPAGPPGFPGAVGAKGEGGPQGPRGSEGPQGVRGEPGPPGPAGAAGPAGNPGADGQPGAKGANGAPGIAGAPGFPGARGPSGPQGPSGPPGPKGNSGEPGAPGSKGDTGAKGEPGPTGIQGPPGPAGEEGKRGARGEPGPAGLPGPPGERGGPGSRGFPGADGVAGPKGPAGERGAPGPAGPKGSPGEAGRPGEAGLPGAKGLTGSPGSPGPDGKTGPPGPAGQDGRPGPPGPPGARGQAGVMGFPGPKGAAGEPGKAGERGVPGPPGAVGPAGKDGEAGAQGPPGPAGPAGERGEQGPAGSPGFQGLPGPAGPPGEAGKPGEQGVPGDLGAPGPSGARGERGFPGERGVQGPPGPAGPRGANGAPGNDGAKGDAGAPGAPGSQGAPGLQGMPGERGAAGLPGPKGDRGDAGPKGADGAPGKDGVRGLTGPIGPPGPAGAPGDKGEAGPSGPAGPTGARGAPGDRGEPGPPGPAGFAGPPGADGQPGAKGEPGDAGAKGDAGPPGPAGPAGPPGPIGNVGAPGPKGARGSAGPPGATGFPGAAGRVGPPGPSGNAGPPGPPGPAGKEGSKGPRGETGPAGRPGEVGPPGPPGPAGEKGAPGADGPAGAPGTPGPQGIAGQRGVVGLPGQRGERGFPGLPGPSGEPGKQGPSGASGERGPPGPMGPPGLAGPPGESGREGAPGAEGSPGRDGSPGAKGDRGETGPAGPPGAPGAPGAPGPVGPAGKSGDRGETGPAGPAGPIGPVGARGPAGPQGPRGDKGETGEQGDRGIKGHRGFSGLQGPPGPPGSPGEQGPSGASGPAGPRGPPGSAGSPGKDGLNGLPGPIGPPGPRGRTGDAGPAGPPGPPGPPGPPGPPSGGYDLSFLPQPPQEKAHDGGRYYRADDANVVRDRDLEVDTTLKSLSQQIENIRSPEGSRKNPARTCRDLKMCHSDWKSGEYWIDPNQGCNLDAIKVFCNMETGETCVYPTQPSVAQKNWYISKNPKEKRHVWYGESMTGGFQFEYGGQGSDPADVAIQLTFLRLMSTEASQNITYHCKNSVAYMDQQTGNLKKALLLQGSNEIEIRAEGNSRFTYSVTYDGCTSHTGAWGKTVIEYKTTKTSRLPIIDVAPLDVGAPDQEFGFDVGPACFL
UniProt P02465: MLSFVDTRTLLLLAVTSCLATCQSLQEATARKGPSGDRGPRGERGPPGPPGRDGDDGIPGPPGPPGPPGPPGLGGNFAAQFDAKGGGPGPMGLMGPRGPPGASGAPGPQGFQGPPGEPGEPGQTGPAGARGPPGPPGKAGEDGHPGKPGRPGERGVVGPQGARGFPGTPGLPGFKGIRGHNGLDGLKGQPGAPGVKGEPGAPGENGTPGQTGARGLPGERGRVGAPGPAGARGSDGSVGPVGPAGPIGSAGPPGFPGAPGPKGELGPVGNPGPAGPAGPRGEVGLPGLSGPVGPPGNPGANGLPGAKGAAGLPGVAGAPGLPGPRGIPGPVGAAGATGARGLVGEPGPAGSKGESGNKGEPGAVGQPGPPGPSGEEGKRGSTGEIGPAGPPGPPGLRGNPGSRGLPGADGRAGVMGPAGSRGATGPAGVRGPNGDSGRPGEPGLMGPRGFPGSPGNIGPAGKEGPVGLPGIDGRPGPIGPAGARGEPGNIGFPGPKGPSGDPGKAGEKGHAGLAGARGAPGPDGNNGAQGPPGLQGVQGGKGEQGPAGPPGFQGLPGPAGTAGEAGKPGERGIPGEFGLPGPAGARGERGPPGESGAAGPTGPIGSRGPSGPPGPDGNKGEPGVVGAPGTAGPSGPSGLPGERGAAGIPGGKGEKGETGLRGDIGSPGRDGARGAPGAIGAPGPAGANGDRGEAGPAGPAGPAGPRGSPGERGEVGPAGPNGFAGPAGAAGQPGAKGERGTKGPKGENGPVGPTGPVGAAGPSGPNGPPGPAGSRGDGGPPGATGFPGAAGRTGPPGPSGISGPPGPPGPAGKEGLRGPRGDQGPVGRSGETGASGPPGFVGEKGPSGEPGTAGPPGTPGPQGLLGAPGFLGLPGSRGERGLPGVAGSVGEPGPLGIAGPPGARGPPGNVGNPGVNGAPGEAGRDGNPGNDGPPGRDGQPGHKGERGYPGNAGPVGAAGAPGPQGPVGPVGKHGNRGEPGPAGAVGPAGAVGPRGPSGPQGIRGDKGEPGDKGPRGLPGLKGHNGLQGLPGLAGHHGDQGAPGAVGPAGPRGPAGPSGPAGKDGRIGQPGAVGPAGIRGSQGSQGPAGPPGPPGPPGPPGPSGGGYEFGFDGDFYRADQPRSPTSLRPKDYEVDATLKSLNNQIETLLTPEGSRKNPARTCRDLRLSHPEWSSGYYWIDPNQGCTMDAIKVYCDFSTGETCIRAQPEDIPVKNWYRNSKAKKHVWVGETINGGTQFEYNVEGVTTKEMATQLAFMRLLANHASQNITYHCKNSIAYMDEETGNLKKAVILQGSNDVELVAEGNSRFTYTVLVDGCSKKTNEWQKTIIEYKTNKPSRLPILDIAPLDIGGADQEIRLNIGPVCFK
UniProt P17301: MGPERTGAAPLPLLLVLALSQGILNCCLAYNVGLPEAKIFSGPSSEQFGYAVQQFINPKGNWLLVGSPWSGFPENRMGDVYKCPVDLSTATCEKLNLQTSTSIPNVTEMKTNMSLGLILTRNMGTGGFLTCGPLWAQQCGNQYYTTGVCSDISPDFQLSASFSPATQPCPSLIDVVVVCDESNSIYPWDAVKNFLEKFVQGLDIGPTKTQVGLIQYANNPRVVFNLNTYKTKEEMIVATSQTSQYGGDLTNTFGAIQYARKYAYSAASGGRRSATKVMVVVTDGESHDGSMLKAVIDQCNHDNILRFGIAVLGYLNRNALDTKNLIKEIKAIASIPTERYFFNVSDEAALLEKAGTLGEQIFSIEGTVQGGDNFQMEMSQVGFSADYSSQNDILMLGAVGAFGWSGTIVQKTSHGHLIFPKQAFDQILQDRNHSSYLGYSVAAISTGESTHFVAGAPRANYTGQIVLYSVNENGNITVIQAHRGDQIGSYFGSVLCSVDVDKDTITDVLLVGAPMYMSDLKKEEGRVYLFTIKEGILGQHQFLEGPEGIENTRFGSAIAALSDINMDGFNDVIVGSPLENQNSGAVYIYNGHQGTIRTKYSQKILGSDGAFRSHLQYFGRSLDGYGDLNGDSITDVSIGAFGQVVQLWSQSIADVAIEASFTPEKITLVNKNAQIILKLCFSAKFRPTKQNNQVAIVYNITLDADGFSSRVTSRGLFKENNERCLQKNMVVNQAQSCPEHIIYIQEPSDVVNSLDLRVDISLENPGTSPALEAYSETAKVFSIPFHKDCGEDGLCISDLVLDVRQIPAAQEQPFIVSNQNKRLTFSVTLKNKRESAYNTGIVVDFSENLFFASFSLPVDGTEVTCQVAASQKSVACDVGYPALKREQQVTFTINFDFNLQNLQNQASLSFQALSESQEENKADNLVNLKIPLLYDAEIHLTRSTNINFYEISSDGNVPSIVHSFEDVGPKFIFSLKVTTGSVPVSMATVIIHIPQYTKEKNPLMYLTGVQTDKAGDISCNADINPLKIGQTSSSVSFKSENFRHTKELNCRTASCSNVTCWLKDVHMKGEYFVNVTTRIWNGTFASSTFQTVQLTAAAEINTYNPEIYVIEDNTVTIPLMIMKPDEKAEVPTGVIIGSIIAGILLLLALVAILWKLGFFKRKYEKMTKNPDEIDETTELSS
UniProt Q9UKX5: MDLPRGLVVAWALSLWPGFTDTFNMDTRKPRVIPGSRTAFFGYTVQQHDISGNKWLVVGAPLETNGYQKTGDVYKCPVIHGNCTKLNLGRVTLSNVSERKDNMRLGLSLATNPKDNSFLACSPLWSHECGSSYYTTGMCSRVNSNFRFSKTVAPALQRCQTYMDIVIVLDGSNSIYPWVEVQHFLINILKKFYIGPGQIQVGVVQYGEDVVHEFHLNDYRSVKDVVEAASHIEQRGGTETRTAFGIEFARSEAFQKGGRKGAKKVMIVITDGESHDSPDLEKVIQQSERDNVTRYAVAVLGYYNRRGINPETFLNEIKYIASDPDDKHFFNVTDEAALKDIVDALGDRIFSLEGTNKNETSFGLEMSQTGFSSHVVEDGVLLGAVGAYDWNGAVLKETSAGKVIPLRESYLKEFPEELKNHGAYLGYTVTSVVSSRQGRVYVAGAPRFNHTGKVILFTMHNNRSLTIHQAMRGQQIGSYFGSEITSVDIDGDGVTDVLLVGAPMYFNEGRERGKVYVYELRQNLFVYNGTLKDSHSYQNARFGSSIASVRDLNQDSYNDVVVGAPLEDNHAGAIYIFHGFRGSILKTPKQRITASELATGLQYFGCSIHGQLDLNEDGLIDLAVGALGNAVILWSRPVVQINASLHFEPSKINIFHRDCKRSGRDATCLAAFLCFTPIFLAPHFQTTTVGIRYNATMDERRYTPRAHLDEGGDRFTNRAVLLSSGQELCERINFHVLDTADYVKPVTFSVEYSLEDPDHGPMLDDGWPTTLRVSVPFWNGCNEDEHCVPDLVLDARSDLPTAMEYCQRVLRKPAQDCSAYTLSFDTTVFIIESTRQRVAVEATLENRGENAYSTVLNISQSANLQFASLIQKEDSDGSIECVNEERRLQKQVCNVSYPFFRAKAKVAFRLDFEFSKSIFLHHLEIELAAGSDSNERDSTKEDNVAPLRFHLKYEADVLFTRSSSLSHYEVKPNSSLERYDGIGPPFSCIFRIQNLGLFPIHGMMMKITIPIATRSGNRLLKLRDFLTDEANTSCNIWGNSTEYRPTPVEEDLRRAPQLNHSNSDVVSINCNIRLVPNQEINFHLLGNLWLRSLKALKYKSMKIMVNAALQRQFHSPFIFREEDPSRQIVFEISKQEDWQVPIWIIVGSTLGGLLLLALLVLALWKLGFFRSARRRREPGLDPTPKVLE

No constants are given. Whether binding was seen depends on the method and setting. Some entries that bind do so weakly or less than the wild type.

In the case of “integrin α2β1 on C2C12 cells expressing human integrin α2 (from UniProt P17301 30-1181; P09055 21-798) (receptor)”, the binding entry in assay [1] is given as “binds”.

As for “integrin α11β1 on C2C12 cells expressing human integrin α11 (from UniProt Q9UKX5 23-1188; P09055 21-798) (receptor)”, the binding result in assay [2] and in assay [1] was “binds” in each case.

For the substance “recombinant human integrin α2β1 (from UniProt P17301 30-1132; P05556 21-728) (receptor)”, the binding result in assay [3] and in assay [4] was “binds” in each case.

These data come from article PMC9569509.
